Experiment [1] concerns the target PD-L1 with the TSS-AAA mutation in the cytoplasmic domain, tagged with GFP (mouse) (UniProt Q9EP73). Briefly: affinity purification with mass spectrometry; PD-L1-GFP immunoprecipitated from lysates of SVEC4-10 cells after sodium vanadate; peptides enriched for phosphopeptides (Fe-NTA) before LC-MS/MS; n = 3 samples per group.
Experiment [2] has as its target WT PD-L1 (programmed death ligand 1) tagged with GFP (mouse) (UniProt Q9EP73). The description is as above.

Protein sequences, listed by entry. Tags and fused reporters are not part of them. Lines headed by an entry give the natural chain unless they say otherwise; changes in a name come on top. Chains listed by the source or under a name are the forms on record and can include a tag or linker. Residues count along the entry.
WT PD-L1 (programmed death ligand 1) tagged with GFP (Q9EP73, residues 19-290): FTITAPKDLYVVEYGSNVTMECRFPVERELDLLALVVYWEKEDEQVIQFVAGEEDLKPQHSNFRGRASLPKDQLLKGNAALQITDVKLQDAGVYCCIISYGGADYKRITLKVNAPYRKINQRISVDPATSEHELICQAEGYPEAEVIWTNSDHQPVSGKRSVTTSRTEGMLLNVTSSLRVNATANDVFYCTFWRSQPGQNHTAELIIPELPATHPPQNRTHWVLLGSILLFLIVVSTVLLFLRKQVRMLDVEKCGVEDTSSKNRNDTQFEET
PD-L1 with the TSS-AAA mutation in the cytoplasmic domain, tagged with GFP (Q9EP73, form named): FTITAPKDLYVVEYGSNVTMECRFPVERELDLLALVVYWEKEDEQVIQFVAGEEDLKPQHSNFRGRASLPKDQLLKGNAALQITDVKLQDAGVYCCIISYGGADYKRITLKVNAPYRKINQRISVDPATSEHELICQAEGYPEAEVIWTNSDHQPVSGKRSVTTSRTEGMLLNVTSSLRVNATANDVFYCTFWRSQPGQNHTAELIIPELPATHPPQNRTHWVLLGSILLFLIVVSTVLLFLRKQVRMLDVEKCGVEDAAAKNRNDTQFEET

The values below come from PMC9761386.

These are yes or no findings as the source states them, for the method shown. Binding seen in cells or lysates may run through a third protein. These calls come from enrichment with a bait or labelling near it, and not all partners need be listed. For some assays here: No binding means not detected with the bait.

B1: MDA5, phosphorylated (protein, UniProt Q8R5F7 1-1025)
chain: MSIVCSAEDSFRNLILFFRPRLKMYIQVEPVLDHLIFLSAETKEQILKKINTCGNTSAAELLLSTLEQGQWPLGWTQMFVEALEHSGNPLAARYVKPTLTDLPSPSSETAHDECLHLLTLLQPTLVDKLLINDVLDTCFEKGLLTVEDRNRISAAGNSGNESGVRELLRRIVQKENWFSTFLDVLRQTGNDALFQELTGGGCPEDNTDLANSSHRDGPAANECLLPAVDESSLETEAWNVDDILPEASCTDSSVTTESDTSLAEGSVSCFDESLGHNSNMGRDSGTMGSDSDESVIQTKRVSPEPELQLRPYQMEVAQPALDGKNIIICLPTGSGKTRVAVYITKDHLDKKKQASESGKVIVLVNKVMLAEQLFRKEFNPYLKKWYRIIGLSGDTQLKISFPEVVKSYDVIISTAQILENSLLNLESGDDDGVQLSDFSLIIIDECHHTNKEAVYNNIMRRYLKQKLRNNDLKKQNKPAIPLPQILGLTASPGVGAAKKQSEAEKHILNICANLDAFTIKTVKENLGQLKHQIKEPCKKFVIADDTRENPFKEKLLEIMASIQTYCQKSPMSDFGTQHYEQWAIQMEKKAAKDGNRKDRVCAEHLRKYNEALQINDTIRMIDAYSHLETFYTDEKEKKFAVLNDSDKSDDEASSCNDQLKGDVKKSLKLDETDEFLMNLFFDNKKMLKKLAENPKYENEKLIKLRNTILEQFTRSEESSRGIIFTKTRQSTYALSQWIMENAKFAEVGVKAHHLIGAGHSSEVKPMTQTEQKEVISKFRTGEINLLIATTVAEEGLDIKECNIVIRYGLVTNEIAMVQARGRARADESTYVLVTSSGSGVTEREIVNDFREKMMYKAINRVQNMKPEEYAHKILELQVQSILEKKMKVKRSIAKQYNDNPSLITLLCKNCSMLVCSGENIHVIEKMHHVNMTPEFKGLYIVRENKALQKKFADYQTNGEIICKCGQAWGTMMVHKGLDLPCLKIRNFVVNFKNNSPKKQYKKWVELPIRFPDLDYSEYCLYSDED
modifications: phosphorylated (site not given)
On to B1, for which the binding entry in experiment [1] is “no binding”; in experiment [2], “binds”.
